{
  "source": "PubChem BioAssay AID2685",
  "about": "(National Center for Advancing Translational Sciences (NCATS), 2010)",
  "experiment": "qHTS Assay for Lipid Storage Modulators in Drosophila S3 Cells;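 for cell number change: cells counted by Cell Tracker Red CMTPX staining in the red channel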",
  "settings": "BODIPY lipid droplet fluorescence, 18-24 h; for cell number change: measured here: cell count max response, cells fed with added oleic acid",
  "outline": "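Drosophila S3 cells loaded with oleic acid (400 uM, as added) and compounds at several concentrations; lipid droplets imaged by 488-nm laser-scanning cytometry, 500–530 nm intensity and object ratio to cell channel. Percent activity normalized to 20 uM Triacsin C.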",
  "key": {"[1]": {"settings": "measured here: cell number channel AC50, cells fed with added oleic acid"}, "[2]": {"settings": "measured here: lipid fluorescence (Fed channel) AC50, cells fed with added oleic acid"}},
  "note": "The list shows a part of the results. The main result of the screen is listed elsewhere. These columns were measured beside it and carry no call. Compounds called inactive in the main read-out are mostly missing here. Potencies come from curve fits of mixed quality, noted in brackets.",
  "data": [
    {"smiles": "c1ccc2c(CNC3CCCCC3)c[nH]c2c1", "values": [
      {"measurement": "cell number change", "value": 49.6, "unit": "%"},
      {"measurement": "AC50", "setting": "[1]", "value": "29.1 µM [rising, single point]"},
      {"measurement": "AC50", "setting": "[2]", "value": "0.651 µM [rising, single point]"}
    ]},
    {"smiles": "CCn1nc(-c2cccs2)nc2c(=O)n(C)c(=O)nc1-2", "values": [
      {"measurement": "cell number change", "value": -35.6, "unit": "%"},
      {"measurement": "AC50", "setting": "[1]", "value": "29.1 µM [falling, single point]"},
      {"measurement": "AC50", "setting": "[2]", "value": "20.6 µM [falling, single point]"}
    ]},
    {"smiles": "CCC(CO)NC(=O)C1C=C2c3cccc4[nH]cc(c34)CC2N(C)C1", "note": "(stereo not given)", "values": [
      {"measurement": "cell number change", "value": 1.72, "unit": "%"}
    ]},
    {"smiles": "Cc1ccc(S(=O)(=O)N(c2cc(Cl)c(O)c(Cl)c2)P(=O)(OC(C)C)OC(C)C)cc1", "values": [
      {"measurement": "AC50", "setting": "[2]", "value": "0.13 µM [rising, partial curve, poor fit]"}
    ]},
    {"smiles": "CCc1ccccc1NC(=O)CN1CCN(C(=O)COc2ccccc2C#N)CC1", "values": [
      {"measurement": "cell number change", "value": -16.7, "unit": "%"}
    ]},
    {"smiles": "N=c1sc2c(n1Cc1ccccc1)CCCC2", "values": [
      {"measurement": "cell number change", "value": -11.9, "unit": "%"},
      {"measurement": "AC50", "setting": "[2]", "value": "23.1 µM [falling, single point]"}
    ]},
    {"smiles": "CCN(CC)c1ccc(N=Cc2c(O)n(-c3ccccc3C)c(=O)[nH]c2=O)cc1", "values": [
      {"measurement": "AC50", "setting": "[1]", "value": "0.146 µM [rising, full curve, poor fit]"}
    ]},
    {"smiles": "O=c1c2ccccc2nc(/C=C/c2ccc(O)cc2)n1-c1cccc(O)c1", "values": [
      {"measurement": "cell number change", "value": 4.4, "unit": "%"}
    ]},
    {"smiles": "COC(=O)C1=C(c2ccc(C(C)=O)cc2)C[C@@H]2CC[C@H]1N2C(=O)NCCOc1ccccc1Cl", "values": [
      {"measurement": "cell number change", "value": -26.1, "unit": "%"},
      {"measurement": "AC50", "setting": "[2]", "value": "1.3 µM [rising, single point]"}
    ]},
    {"smiles": "COc1ccc(-n2c(SCCN(C)C)nc3ccccc3c2=O)cc1", "values": [
      {"measurement": "cell number change", "value": -5.76, "unit": "%"},
      {"measurement": "AC50", "setting": "[2]", "value": "0.0731 µM [rising, full curve, poor fit]"}
    ]},
    {"smiles": "CNC(C)(C)Cc1ccccc1", "values": [
      {"measurement": "cell number change", "value": -16.2, "unit": "%"},
      {"measurement": "AC50", "setting": "[2]", "value": "0.206 µM [falling, full curve, poor fit]"}
    ]},
    {"smiles": "COC1C(OC(=O)c2ccc(C)[nH]2)C(O)C(Oc2ccc3c(O)c(NC(=O)c4ccc(O)c(CC=C(C)C)c4)c(=O)oc3c2Cl)OC1(C)C", "note": "(stereo not given)", "values": [
      {"measurement": "cell number change", "value": -16.1, "unit": "%"},
      {"measurement": "AC50", "setting": "[2]", "value": "29.1 µM [falling, single point]"}
    ]},
    {"smiles": "CCCCn1c(=O)c(C=Nc2ccc(Cl)cc2)c(O)n(Cc2ccco2)c1=O", "values": [
      {"measurement": "cell number change", "value": 45.4, "unit": "%"},
      {"measurement": "AC50", "setting": "[1]", "value": "14.6 µM [rising, partial curve]"},
      {"measurement": "AC50", "setting": "[2]", "value": "16.4 µM [rising, partial curve]"}
    ]},
    {"smiles": "CC[N+](CC)(CC)CCOc1cccc(OCC[N+](CC)(CC)CC)c1OCC[N+](CC)(CC)CC", "values": [
      {"measurement": "AC50", "setting": "[1]", "value": "1.84 µM [falling, full curve, poor fit]"}
    ]},
    {"smiles": "O=C1NC(=O)N(CC2CCCO2)C(=O)/C1=C/c1cccs1", "note": "(stereo not given)", "values": [
      {"measurement": "cell number change", "value": 3.98, "unit": "%"}
    ]},
    {"smiles": "COC(=O)C1=C(c2ccc(OC)c(OC)c2)C[C@@H]2CC[C@H]1N2C(=O)N1CCC(C)CC1", "values": [
      {"measurement": "cell number change", "value": -14.7, "unit": "%"},
      {"measurement": "AC50", "setting": "[2]", "value": "25.9 µM [falling, single point]"}
    ]},
    {"smiles": "O=S1(=O)CCN(CCc2c[nH]c3ccccc23)CC1", "values": [
      {"measurement": "cell number change", "value": 7.27, "unit": "%"},
      {"measurement": "AC50", "setting": "[2]", "value": "3.26 µM [rising, single point]"}
    ]},
    {"smiles": "CCCCn1c(NS(=O)(=O)c2ccccc2)c(C(=O)OCC)c2nc3ccccc3nc21", "values": [
      {"measurement": "cell number change", "value": -11, "unit": "%"},
      {"measurement": "AC50", "setting": "[2]", "value": "4.61 µM [falling, single point]"}
    ]},
    {"smiles": "COc1cc2c(cc1OC)CN(c1ccc([N+](=O)[O-])c(C(F)(F)F)c1)CC2", "values": [
      {"measurement": "cell number change", "value": -22.3, "unit": "%"}
    ]},
    {"smiles": "CCOc1cc(CNCCc2c[nH]c3ccccc23)cc(Cl)c1OCC", "values": [
      {"measurement": "cell number change", "value": -78.9, "unit": "%"},
      {"measurement": "AC50", "setting": "[1]", "value": "8.2 µM [falling, partial curve]"},
      {"measurement": "AC50", "setting": "[2]", "value": "29.1 µM [falling, single point]"}
    ]},
    {"smiles": "CC(=NCc1ccco1)c1c(O)n(Cc2ccccc2)c(=O)[nH]c1=O", "values": [
      {"measurement": "cell number change", "value": 23, "unit": "%"},
      {"measurement": "AC50", "setting": "[1]", "value": "3.66 µM [rising, full curve, poor fit]"},
      {"measurement": "AC50", "setting": "[2]", "value": "20.6 µM [rising, single point]"}
    ]},
    {"smiles": "CCOC(=O)C(O)(c1ccc(N=c2ccccn2C)cc1)C(F)(F)F", "note": "(stereo not given)", "values": [
      {"measurement": "cell number change", "value": 10.9, "unit": "%"},
      {"measurement": "AC50", "setting": "[2]", "value": "5.8 µM [rising, full curve]"}
    ]},
    {"smiles": "CCN1C(=O)c2ccccc2Sc2ccc(C(=O)N3CCC4(CC3)OCCO4)cc21", "values": [
      {"measurement": "cell number change", "value": -20.6, "unit": "%"},
      {"measurement": "AC50", "setting": "[1]", "value": "0.164 µM [falling, full curve, poor fit]"}
    ]},
    {"smiles": "COc1ccc(CC2C(=O)N(c3ccccc3)C(=O)N(c3ccccc3)C2=O)c(OC)c1", "values": [
      {"measurement": "cell number change", "value": -18.4, "unit": "%"},
      {"measurement": "AC50", "setting": "[1]", "value": "6.51 µM [falling, single point]"}
    ]},
    {"smiles": "CCOP(=O)(OCC)c1nc(-c2ccc(Cl)cc2)oc1NCc1ccccc1", "values": [
      {"measurement": "AC50", "setting": "[1]", "value": "1.16 µM [falling, partial curve, poor fit]"}
    ]},
    {"smiles": "CCOc1cc2c(cc1OCC)-n1cccc1C(c1ccccc1OC)NC2", "note": "(stereo not given)", "values": [
      {"measurement": "cell number change", "value": 4.23, "unit": "%"},
      {"measurement": "AC50", "setting": "[2]", "value": "29.1 µM [rising, single point]"}
    ]},
    {"smiles": "CCOC(=O)CC(NC(=O)C(Cc1ccc(N(CCCl)CCCl)cc1)NC(C)=O)C(=O)OCC", "note": "(stereo not given)", "values": [
      {"measurement": "cell number change", "value": -18.8, "unit": "%"},
      {"measurement": "AC50", "setting": "[2]", "value": "29.1 µM [falling, single point]"}
    ]},
    {"smiles": "CCN(CC)CCOC(=O)C(O)(c1ccccc1)c1ccccc1", "values": [
      {"measurement": "cell number change", "value": 1.75, "unit": "%"},
      {"measurement": "AC50", "setting": "[2]", "value": "16.4 µM [rising, single point]"}
    ]},
    {"smiles": "COc1ccc(OC)c(C(O)C2CCCCN2)c1", "note": "(stereo not given)", "values": [
      {"measurement": "cell number change", "value": 1.47, "unit": "%"},
      {"measurement": "AC50", "setting": "[2]", "value": "3.26 µM [rising, single point]"}
    ]},
    {"smiles": "Cn1cccc1/C=C1/C(=O)NC(=S)N(Cc2ccc(F)cc2)C1=O", "values": [
      {"measurement": "cell number change", "value": 50.1, "unit": "%"},
      {"measurement": "AC50", "setting": "[1]", "value": "25.9 µM [rising, single point]"}
    ]},
    {"smiles": "COc1ccc(CC2C(=O)NC(=O)NC2=O)c(OC)c1", "values": [
      {"measurement": "cell number change", "value": 0.437, "unit": "%"}
    ]},
    {"smiles": "CN(C)CCCN=Cc1c(O)n(CCc2ccccc2)c(=O)[nH]c1=O", "values": [
      {"measurement": "cell number change", "value": 8.36, "unit": "%"},
      {"measurement": "AC50", "setting": "[2]", "value": "0.0231 µM [falling, full curve, poor fit]"}
    ]},
    {"smiles": "C=CCn1c(O)c(C(CC)=Nc2cccc(C(=O)O)c2)c(=O)[nH]c1=O", "values": [
      {"measurement": "cell number change", "value": -22.5, "unit": "%"},
      {"measurement": "AC50", "setting": "[2]", "value": "0.291 µM [falling, full curve]"}
    ]},
    {"smiles": "COc1ccc(CCn2c(O)c(C=NCc3ccc4c(c3)OCO4)c(=O)[nH]c2=O)cc1OC", "values": [
      {"measurement": "cell number change", "value": -12.5, "unit": "%"},
      {"measurement": "AC50", "setting": "[2]", "value": "0.291 µM [rising, partial curve, poor fit]"}
    ]},
    {"smiles": "COC(=O)C1=C(c2cccc(OCc3ccccc3)c2)C[C@@H]2CC[C@H]1N2C(=O)NCc1ccc(Cl)cc1", "values": [
      {"measurement": "cell number change", "value": -9.7, "unit": "%"},
      {"measurement": "AC50", "setting": "[1]", "value": "2.31 µM [falling, single point]"},
      {"measurement": "AC50", "setting": "[2]", "value": "29.1 µM [falling, single point]"}
    ]},
    {"smiles": "CN(C)C(=O)Oc1ccc(OCc2cccc[n+]2C)cc1", "values": [
      {"measurement": "cell number change", "value": 6.44, "unit": "%"},
      {"measurement": "AC50", "setting": "[2]", "value": "16.4 µM [falling, single point]"}
    ]},
    {"smiles": "CCN(CC)C1=NC(=[N+](CC)CC)c2ccccc21", "values": [
      {"measurement": "AC50", "setting": "[1]", "value": "7.31 µM [rising, single point]"},
      {"measurement": "AC50", "setting": "[2]", "value": "1.46 µM [falling, full curve]"}
    ]}
  ]
}
